For 66 targets, melting temperature shift results are on record in the supplement of paper PMC10060354, “Discovery of a small molecule ligand of FRS2 that inhibits invasion and tumor growth” (Cellular Oncology, 2022).

By UniProt entry, the sequences of proteins in these tests, tags left out. Where a name states a change or a piece, a line headed by the entry shows the natural chain unless it says otherwise.
UniProt Q9H3C7, whole entry: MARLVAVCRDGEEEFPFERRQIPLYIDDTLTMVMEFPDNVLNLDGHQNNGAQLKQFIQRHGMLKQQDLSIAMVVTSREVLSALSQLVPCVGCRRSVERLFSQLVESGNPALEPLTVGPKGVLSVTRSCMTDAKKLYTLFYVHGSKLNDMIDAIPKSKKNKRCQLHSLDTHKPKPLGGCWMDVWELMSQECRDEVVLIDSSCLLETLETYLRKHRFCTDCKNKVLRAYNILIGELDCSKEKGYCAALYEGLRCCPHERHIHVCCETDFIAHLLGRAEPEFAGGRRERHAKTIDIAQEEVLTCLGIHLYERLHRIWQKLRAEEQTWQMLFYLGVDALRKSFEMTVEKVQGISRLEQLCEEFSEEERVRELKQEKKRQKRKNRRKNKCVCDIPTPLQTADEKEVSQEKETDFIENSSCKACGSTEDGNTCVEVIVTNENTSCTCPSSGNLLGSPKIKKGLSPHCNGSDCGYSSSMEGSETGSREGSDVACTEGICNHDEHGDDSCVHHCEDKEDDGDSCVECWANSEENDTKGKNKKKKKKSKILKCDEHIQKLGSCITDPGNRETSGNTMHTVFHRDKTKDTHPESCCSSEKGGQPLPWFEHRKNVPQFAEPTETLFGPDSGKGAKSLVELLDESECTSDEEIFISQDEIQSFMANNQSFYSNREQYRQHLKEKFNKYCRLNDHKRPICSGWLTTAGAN
UniProt P56378: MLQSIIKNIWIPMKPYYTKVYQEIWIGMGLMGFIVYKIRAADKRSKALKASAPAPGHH
UniProt P06756, whole entry: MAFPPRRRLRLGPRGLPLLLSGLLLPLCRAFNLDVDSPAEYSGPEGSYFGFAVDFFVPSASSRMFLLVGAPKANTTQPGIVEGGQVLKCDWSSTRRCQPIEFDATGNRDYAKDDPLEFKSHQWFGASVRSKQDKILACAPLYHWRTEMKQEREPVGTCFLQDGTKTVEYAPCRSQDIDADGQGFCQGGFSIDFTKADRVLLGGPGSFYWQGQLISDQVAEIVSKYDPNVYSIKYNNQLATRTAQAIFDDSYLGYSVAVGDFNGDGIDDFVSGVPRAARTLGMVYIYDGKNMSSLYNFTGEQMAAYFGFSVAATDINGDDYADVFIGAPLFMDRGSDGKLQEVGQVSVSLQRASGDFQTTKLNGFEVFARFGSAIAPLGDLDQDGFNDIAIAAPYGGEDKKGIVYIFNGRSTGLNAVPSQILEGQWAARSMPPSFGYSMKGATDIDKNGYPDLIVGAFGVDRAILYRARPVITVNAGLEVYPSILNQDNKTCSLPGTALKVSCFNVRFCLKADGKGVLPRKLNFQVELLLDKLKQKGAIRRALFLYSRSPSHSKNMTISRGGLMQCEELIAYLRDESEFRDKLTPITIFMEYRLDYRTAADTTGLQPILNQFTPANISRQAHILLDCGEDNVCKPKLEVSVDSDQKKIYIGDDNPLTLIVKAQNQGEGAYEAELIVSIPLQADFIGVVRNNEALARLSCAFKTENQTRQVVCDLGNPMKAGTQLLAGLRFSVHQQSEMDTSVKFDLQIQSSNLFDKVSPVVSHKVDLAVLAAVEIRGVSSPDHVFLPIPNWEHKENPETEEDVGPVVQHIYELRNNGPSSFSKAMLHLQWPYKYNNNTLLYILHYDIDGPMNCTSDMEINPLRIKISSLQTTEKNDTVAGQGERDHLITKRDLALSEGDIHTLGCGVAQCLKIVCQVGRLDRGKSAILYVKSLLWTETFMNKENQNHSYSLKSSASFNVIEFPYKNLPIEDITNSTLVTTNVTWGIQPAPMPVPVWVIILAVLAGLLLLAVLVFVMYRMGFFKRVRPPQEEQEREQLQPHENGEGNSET
UniProt O60725, whole entry: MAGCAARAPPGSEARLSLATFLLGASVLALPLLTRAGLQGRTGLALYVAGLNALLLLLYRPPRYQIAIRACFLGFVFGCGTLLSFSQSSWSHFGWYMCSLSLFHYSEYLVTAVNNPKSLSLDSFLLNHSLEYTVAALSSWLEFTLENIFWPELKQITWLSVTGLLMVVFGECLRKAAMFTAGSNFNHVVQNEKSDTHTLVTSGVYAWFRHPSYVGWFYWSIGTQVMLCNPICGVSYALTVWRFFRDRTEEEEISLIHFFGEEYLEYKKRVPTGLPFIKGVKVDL
UniProt Q8NBF6: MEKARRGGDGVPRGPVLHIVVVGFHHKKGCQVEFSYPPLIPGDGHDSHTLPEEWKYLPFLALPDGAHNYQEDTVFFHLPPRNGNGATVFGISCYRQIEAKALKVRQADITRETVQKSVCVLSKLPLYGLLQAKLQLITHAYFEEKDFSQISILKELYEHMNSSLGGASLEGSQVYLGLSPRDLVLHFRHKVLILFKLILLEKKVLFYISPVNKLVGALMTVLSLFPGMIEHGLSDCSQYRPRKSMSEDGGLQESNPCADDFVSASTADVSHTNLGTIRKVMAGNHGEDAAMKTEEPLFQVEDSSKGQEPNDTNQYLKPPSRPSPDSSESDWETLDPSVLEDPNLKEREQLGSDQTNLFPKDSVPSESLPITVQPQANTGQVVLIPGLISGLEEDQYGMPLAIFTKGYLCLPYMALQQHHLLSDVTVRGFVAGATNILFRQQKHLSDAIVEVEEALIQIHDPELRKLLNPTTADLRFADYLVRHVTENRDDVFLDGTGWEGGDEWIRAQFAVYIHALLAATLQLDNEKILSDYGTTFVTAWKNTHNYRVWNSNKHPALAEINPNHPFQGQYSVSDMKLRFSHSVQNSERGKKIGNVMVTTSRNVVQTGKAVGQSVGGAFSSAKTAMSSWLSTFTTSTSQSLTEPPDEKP
UniProt Q9NS69: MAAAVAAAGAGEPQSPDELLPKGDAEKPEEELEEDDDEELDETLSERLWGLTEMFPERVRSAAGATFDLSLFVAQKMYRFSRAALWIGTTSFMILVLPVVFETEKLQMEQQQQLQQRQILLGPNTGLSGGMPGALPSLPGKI
UniProt Q12846: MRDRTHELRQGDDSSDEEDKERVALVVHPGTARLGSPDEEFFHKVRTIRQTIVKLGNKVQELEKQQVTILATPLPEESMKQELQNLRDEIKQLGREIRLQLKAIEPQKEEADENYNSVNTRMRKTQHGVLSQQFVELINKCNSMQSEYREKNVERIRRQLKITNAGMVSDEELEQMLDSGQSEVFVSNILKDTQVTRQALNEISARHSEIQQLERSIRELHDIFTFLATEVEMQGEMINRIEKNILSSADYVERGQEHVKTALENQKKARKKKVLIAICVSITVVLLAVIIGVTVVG
UniProt P10644, whole entry: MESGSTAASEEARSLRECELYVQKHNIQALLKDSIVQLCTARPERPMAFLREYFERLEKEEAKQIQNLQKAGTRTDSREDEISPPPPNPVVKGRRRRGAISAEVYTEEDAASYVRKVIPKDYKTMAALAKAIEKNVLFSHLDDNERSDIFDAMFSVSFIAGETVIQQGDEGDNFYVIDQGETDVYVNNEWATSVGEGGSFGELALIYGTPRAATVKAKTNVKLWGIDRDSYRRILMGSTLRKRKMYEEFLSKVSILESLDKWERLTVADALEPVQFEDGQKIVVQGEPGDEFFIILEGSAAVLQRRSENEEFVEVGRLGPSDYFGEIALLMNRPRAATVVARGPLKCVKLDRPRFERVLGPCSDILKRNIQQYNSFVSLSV
UniProt O00629, whole entry: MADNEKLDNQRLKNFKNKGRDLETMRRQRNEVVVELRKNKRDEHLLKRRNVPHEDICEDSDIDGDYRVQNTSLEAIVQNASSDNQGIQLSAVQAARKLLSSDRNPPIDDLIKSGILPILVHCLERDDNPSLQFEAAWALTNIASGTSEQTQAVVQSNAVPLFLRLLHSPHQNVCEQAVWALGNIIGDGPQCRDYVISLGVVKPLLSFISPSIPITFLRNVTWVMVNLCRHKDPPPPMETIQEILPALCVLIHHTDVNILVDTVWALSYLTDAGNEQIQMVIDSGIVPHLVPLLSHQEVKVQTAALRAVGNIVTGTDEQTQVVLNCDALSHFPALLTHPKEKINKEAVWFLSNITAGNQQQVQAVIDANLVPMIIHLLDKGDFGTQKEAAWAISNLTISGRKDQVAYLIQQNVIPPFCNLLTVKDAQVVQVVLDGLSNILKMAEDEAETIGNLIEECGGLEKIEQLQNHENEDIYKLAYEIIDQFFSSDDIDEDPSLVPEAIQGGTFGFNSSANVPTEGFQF
UniProt Q969X6: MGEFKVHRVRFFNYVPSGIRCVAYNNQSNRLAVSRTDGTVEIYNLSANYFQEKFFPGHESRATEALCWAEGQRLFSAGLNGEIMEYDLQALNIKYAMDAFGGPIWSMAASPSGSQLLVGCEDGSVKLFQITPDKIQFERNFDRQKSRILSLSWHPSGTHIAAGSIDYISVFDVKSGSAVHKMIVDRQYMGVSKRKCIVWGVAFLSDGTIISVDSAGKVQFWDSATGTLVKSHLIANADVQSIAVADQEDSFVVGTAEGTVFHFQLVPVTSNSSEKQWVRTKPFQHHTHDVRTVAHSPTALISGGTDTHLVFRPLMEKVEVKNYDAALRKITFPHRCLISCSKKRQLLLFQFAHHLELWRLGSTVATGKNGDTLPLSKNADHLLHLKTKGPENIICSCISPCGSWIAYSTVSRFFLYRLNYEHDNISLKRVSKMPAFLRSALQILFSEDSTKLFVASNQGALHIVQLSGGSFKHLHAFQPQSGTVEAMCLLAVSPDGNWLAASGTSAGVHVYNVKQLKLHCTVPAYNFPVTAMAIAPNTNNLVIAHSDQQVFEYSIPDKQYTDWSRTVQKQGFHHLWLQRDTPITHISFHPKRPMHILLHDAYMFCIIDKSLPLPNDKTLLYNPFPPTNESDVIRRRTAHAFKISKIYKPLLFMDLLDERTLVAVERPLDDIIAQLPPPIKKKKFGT
UniProt Q15543, whole entry: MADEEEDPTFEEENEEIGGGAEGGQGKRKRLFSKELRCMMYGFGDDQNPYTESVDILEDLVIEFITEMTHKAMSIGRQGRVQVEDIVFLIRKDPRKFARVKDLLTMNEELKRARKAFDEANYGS
UniProt O95983: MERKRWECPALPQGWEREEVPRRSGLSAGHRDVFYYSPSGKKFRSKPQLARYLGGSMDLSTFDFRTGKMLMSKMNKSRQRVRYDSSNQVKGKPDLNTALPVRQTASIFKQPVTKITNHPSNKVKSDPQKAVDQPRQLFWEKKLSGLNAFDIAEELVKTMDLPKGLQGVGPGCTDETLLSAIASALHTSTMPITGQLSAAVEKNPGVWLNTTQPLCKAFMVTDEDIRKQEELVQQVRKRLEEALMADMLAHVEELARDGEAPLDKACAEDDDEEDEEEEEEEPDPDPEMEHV
UniProt Q9H2M9: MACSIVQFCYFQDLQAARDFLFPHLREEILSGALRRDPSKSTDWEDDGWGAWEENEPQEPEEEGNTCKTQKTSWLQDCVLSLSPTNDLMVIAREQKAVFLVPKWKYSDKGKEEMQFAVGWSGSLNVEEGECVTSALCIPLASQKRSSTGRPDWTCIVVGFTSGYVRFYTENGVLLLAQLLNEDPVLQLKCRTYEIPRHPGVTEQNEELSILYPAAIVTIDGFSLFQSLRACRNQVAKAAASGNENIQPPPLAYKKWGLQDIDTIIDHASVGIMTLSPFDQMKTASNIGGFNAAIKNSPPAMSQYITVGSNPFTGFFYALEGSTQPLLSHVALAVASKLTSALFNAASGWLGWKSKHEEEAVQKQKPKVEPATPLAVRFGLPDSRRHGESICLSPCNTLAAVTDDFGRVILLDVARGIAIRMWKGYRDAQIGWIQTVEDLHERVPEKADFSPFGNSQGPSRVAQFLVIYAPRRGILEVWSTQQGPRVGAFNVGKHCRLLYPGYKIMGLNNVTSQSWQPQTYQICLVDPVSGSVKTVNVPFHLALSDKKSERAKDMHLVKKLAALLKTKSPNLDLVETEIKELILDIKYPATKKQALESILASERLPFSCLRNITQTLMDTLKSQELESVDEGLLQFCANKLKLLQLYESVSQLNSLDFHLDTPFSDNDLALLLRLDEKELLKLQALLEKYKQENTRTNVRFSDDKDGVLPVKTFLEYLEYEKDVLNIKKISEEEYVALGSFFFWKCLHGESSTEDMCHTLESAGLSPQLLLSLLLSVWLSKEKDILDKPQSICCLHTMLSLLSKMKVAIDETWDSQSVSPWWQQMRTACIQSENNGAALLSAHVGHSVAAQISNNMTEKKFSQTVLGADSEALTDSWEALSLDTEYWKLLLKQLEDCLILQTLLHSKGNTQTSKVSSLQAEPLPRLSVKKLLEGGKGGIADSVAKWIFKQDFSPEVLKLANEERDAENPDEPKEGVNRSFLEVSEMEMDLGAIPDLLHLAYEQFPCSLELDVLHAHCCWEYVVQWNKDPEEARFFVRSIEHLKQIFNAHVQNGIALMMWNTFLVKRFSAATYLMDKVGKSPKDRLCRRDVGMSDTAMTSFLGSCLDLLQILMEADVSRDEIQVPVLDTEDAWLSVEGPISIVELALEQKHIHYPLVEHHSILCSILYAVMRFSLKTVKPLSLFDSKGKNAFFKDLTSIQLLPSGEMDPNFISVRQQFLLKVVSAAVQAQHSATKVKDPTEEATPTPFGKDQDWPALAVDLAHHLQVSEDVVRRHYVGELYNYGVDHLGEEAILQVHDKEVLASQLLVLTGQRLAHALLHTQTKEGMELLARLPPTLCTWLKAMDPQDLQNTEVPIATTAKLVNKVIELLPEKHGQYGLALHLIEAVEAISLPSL

Compound in this assay: [O-][N+](C(C1=C(C(O)=C2)NC(C(C=C3)=CC=C3Cl)C4C1C=CC4)=C2Cl)=O
Kind of assay: melting temperature shift (compound 7 minus DMSO); higher = compound stabilises the protein. Conditions: 10 µM. As for the experimental part: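 Thermal proteome profiling (TMT mass spectrometry) in intact DAOY medulloblastoma cells or DAOY lysates treated with 10 µM compound 7 or DMSO, heated at 10 temperatures from 40.5 to 73.8 °C for 3 min. Melting curves were fitted with the Bioconductor TPP package, and the melting point difference between compound and vehicle is reported per protein (single curve per condition).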

[1] abbreviates: system: DAOY cell lysate, treatment time: 20 min, 4 °C.
[2] abbreviates: system: intact DAOY cells, treatment time: 90 min, 37 °C.

Repeats are few or missing, and single values can be far off.

For GGNBP2 (UniProt Q9H3C7), the melting temperature shift under setting [1] was 0.504 °C.
As to HPCAL1 (UniProt P37235), under setting [1], the melting temperature shift is 1.35 °C.
In the case of MP68 (UniProt P56378), the melting temperature shift was 1.01 °C under setting [1] and 0.303 °C under setting [2].
The matching figures for TCP1 (UniProt P17987): -0.331 °C and -0.495 °C.
Take ITGAV (UniProt P06756): the melting temperature shift under setting [1] was 2.71 °C.
Regarding GTF3C3 (UniProt Q9Y5Q9), the melting temperature shift reads like this: under setting [1], 2.07 °C; under setting [2], -2.05 °C.
With UniProt Q9BSC4, the melting temperature shift under setting [1] was found to be 0.291 °C.
Turning to TTC9C (UniProt Q8N5M4), the melting temperature shift was -1.01 °C under setting [1] and -0.149 °C under setting [2].
For the target UniProt Q8WWV6, under setting [2], the melting temperature shift is -2.97 °C.
With ATP1B3 (UniProt P54709), the melting temperature shift runs as follows: under setting [1], 2.67 °C; under setting [2], -0.377 °C.
The matching figures for SNX6 (UniProt Q9UNH7): -0.329 °C and -1.58 °C.
Take UniProt O60725: the melting temperature shift under setting [1] is 0.149 °C.
Regarding ESYT2 (UniProt A0FGR8), the melting temperature shift under setting [1] was 0.904 °C and the melting temperature shift under setting [2] is -0.945 °C.
The matching figures for ACAA2 (UniProt P42765): 1.84 °C and 0.814 °C.
For RCC2 (UniProt Q9P258), the melting temperature shift by setting is: under setting [1], -0.396 °C; under setting [2], 0.0142 °C.
The matching figures for PPP1R10 (UniProt Q96QC0): -0.276 °C and -1.01 °C.
The matching figures for AVL9 (UniProt Q8NBF6): -2.04 °C and -0.431 °C.
Taken in the same sequence, the figures for TOMM22 (UniProt Q9NS69) were 2.82 °C and -1.39 °C.
With UniProt Q15035, the melting temperature shift by setting is: under setting [1], 1.26 °C; under setting [2], -3.12 °C.
The matching figures for STX4 (UniProt Q12846): 2.22 °C and -0.127 °C.
Taken in the same sequence, the figures for E2F4 (UniProt Q16254) were -0.927 °C and -0.634 °C.
Consider NOSIP (UniProt Q9Y314), for which the melting temperature shift was 0.123 °C under setting [1] and -1.07 °C under setting [2].
On to FKBP5 (UniProt Q13451), for which the melting temperature shift is, setting by setting: under setting [1], -0.436 °C; under setting [2], -0.1 °C.
Take OSBPL2 (UniProt Q9H1P3): under setting [1], the melting temperature shift is -1.91 °C.
Turning to PRKAR1A (UniProt P10644), the melting temperature shift under setting [1] was 0.714 °C and the melting temperature shift under setting [2] was -0.144 °C.
Regarding RAD21 (UniProt O60216), the melting temperature shift reads like this: under setting [1], -0.0626 °C; under setting [2], -0.98 °C.
The matching figures for SCAF8 (UniProt Q9UPN6): 0.431 °C and -0.924 °C.
With PMVK (UniProt Q15126), the melting temperature shift is, setting by setting: under setting [1], -1.73 °C; under setting [2], -0.792 °C.
For ITSN1 (UniProt Q15811), the melting temperature shift is, setting by setting: under setting [1], -0.425 °C; under setting [2], 0.922 °C.
Taken in the same sequence, the figures for MDC1 (UniProt Q14676) were -1.4 °C and 1.95 °C.
Take PSME3 (UniProt P61289): under setting [1], the melting temperature shift was -0.475 °C.
Turning to PGM1 (UniProt P36871), the melting temperature shift under setting [1] is -0.758 °C and the melting temperature shift under setting [2] was -1.59 °C.
For the target CNNM3 (UniProt Q8NE01), the melting temperature shift under setting [2] was found to be 0.285 °C.
Same read-out and setting: the figure for UniProt Q9H0V1 is -0.938 °C.
As to P3H4 (UniProt Q92791), the melting temperature shift was -0.179 °C under setting [1] and 0.509 °C under setting [2].
UniProt Q6N063: the melting temperature shift under setting [1] is 0.299 °C.
Consider NUBP2 (UniProt Q9Y5Y2), for which the melting temperature shift was -0.591 °C under setting [1] and 0.479 °C under setting [2].
Turning to SLC37A4 (UniProt O43826), the melting temperature shift under setting [1] was -0.637 °C.
CDK2 (UniProt P24941): the melting temperature shift by setting is: under setting [1], 0.273 °C; under setting [2], -0.443 °C.
The matching figures for PROCR (UniProt Q9UNN8): 0.84 °C and -0.535 °C.
Taken in the same sequence, the figures for UniProt Q9H2J7 were 1.31 °C and 0.516 °C.
As for TYW1 (UniProt Q9NV66), under setting [1], the melting temperature shift was determined as 1.32 °C.
On to TACC1 (UniProt O75410), for which the melting temperature shift was 0.551 °C under setting [1] and -0.366 °C under setting [2].
Taken in the same sequence, the figures for CYP20A1 (UniProt Q6UW02) were 0.376 °C and -1.7 °C.
Taken in the same sequence, the figures for GALNT7 (UniProt Q86SF2) were 0.965 °C and -1.04 °C.
Taken in the same sequence, the figures for KPNA4 (UniProt O00629) were -0.688 °C and 1.7 °C.
In the case of MTPAP (UniProt Q9NVV4), under setting [1], the melting temperature shift was -0.538 °C.
Turning to UTP4 (UniProt Q969X6), the melting temperature shift came to 1.14 °C under setting [1] and 0.797 °C under setting [2].
As for UniProt Q15543, the melting temperature shift under setting [1] was -1.04 °C.
As for MRM1 (UniProt Q6IN84), under setting [1], the melting temperature shift worked out at 0.737 °C.
RPL31 (UniProt P62899): the melting temperature shift reads like this: under setting [1], 0.67 °C; under setting [2], -0.657 °C.
Taken in the same sequence, the figures for ATP6V1B2 (UniProt P21281) were 0.129 °C and 0.462 °C.
Taken in the same sequence, the figures for CRYZL1 (UniProt O95825) were -1.84 °C and -0.526 °C.
The matching figures for UPF2 (UniProt Q9HAU5): 0.614 °C and -0.293 °C.
AIP (UniProt O00170): the melting temperature shift was -0.592 °C under setting [1] and -0.165 °C under setting [2].
Consider POLR3F (UniProt Q9H1D9), for which the melting temperature shift by setting is: under setting [1], -0.97 °C; under setting [2], -0.103 °C.
NDUFA9 (UniProt Q16795): the melting temperature shift is 1.39 °C under setting [1] and -0.847 °C under setting [2].
The matching figures for STAMBP (UniProt O95630): 0.23 °C and -0.0669 °C.
CCS (UniProt O14618): the melting temperature shift under setting [1] was -3.08 °C and the melting temperature shift under setting [2] was -0.0197 °C.
Regarding ATG9A (UniProt Q7Z3C6), the melting temperature shift is -1.03 °C under setting [1] and 0.147 °C under setting [2].
The matching figures for THG1L (UniProt Q9NWX6): -1.35 °C and -0.952 °C.
Taken in the same sequence, the figures for MBD3 (UniProt O95983) were -0.352 °C and -0.705 °C.
For MVK (UniProt Q03426), the melting temperature shift is -0.373 °C under setting [1] and -0.106 °C under setting [2].
In the case of ZDHHC13 (UniProt Q8IUH4), the melting temperature shift under setting [1] came to 0.856 °C.
Same read-out and setting: to MINK1 (UniProt Q8N4C8) belongs -1.09 °C.
As for RAB3GAP2 (UniProt Q9H2M9), the melting temperature shift is, setting by setting: under setting [1], -0.459 °C; under setting [2], -0.401 °C.
